In patent US6428965 (Johns Hopkins, dated 2002):
Results are given in words; binding and its absence hold for the method and conditions named. For part of these data: Binding seen in cells or lysates may run through a third protein. Some binding calls cover weakened binding; strength is not graded here. Sequences can lack the tags named with a protein.

T1: myc-tagged soluble neuropilin extracellular domain (myc-neuropilin^ex) (rat) (UniProt Q9QWJ9)
T1 sequence: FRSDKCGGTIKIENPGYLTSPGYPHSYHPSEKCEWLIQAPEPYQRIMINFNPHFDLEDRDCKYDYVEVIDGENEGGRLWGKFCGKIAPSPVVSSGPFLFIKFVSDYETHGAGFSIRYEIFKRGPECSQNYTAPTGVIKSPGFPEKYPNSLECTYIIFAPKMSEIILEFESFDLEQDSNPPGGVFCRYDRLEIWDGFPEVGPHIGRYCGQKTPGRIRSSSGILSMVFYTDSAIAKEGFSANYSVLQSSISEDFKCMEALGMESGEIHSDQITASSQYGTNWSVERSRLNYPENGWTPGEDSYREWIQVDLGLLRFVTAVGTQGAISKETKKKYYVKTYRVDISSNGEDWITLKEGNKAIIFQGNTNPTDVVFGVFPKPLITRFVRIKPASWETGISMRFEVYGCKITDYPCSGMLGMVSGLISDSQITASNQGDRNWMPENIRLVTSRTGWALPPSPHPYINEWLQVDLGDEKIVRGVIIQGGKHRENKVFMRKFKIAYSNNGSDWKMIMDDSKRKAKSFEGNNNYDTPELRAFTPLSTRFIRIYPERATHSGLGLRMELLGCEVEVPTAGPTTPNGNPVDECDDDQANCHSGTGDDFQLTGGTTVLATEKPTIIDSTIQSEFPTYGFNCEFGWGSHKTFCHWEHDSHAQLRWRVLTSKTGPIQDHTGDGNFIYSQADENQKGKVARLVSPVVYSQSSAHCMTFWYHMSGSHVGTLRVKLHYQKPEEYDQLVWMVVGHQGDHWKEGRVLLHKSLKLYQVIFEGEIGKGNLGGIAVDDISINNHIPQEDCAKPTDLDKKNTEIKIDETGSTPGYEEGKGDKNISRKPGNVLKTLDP


Experiments:
[1] = biological target: rat neuropilin (neuropilin-1), full length (rat) (UniProt Q9QWJ9); test: binding to transfected COS cells
[2] = biological target: T1, myc-tagged soluble neuropilin extracellular domain (myc-neuropilin^ex) (rat); test: co-immunoprecipitation with anti-myc antibody, AP activity
[3] = biological target: T1, myc-tagged soluble neuropilin extracellular domain (myc-neuropilin^ex) (rat); test: co-immunoprecipitation with anti-myc antibody, AP activity (FIG. 1F)

binding [1]	binding [2]	binding [3]	Binder
binds	–	–	myc epitope-tagged Sema III (Sema-myc) (ligand, human, UniProt Q14563 21-771, looked up, not shown: small tags and cut ends) NYQNGKNNVPRLKLSYKEMLESNNVITFNGLANSSSYHTFLLDEERSRLYVGAKDHIFSFDLVNIKDFQKIVWPVSYTRRDECKWAGKDILKECANFIKVLKAYNQTHLYACGTGAFHPICTYIEIGHHPEDNIFKLENSHFENGRGKSPYDPKLLTASLLIDGELYSGTAADFMGRDFAIFRTLGHHHPIRTEQHDSRWLNDPKFISAHLISESDNPEDDKVYFFFRENAIDGEHSGKATHARIGQICKNDFGGHRSLVNKWTTFLKARLICSVPGPNGIDTHFDELQDVFLMNFKDPKNPVVYGVFTTSSNIFKGSAVCMYSMSDVRRVFLGPYAHRDGPNYQWVPYQGRVPYPRPGTCPSKTFGGFDSTKDLPDDVITFARSHPAMYNPVFPMNNRPIVIKTDVNYQFTQIVVDRVDAEDGQYDVMFIGTDVGTVLKVVSIPKETWYDLEEVLLEEMTVFREPTAISAMELSTKQQQLYIGSTAGVAQLPLHRCDIYGKACAECCLARDPYCAWDGSACSRYFPTAKRRTRRQDIRNGDPLTHCSDLHHDNHHGHSPEERIIYGVENSSTFLECSPKSQRALVYWQFQRRNEERKEEIRVDDHIIRTDQGLLLRSLQQKDSGNYLCHAVEHGFIQTLLKVTLEVIDTEHLEELLHKDDDGDGSKTKEMSNSMTPSQKVWYRDFMQLINHPNLNTMDEFCEQVWKRDRKQRRQRPGHTPGNSNKWKHLQENKKGRNRRTHEFERAPRSV
–	binds	binds	H-Sema III-alkaline phosphatase fusion protein (Sema-AP) (ligand, human, UniProt Q14563 21-771, looked up, Made in 293 EBNA cells from pCEP4 and used as supernatant; also called Sema III-AP; Sema III-secreted placental alkaline phosphatase fusion protein; not shown: secreted placental alkaline phosphatase of vector pAPtag-1 (Flanagan and Leder, 1990), C-terminal to Sema III; limits an) NYQNGKNNVPRLKLSYKEMLESNNVITFNGLANSSSYHTFLLDEERSRLYVGAKDHIFSFDLVNIKDFQKIVWPVSYTRRDECKWAGKDILKECANFIKVLKAYNQTHLYACGTGAFHPICTYIEIGHHPEDNIFKLENSHFENGRGKSPYDPKLLTASLLIDGELYSGTAADFMGRDFAIFRTLGHHHPIRTEQHDSRWLNDPKFISAHLISESDNPEDDKVYFFFRENAIDGEHSGKATHARIGQICKNDFGGHRSLVNKWTTFLKARLICSVPGPNGIDTHFDELQDVFLMNFKDPKNPVVYGVFTTSSNIFKGSAVCMYSMSDVRRVFLGPYAHRDGPNYQWVPYQGRVPYPRPGTCPSKTFGGFDSTKDLPDDVITFARSHPAMYNPVFPMNNRPIVIKTDVNYQFTQIVVDRVDAEDGQYDVMFIGTDVGTVLKVVSIPKETWYDLEEVLLEEMTVFREPTAISAMELSTKQQQLYIGSTAGVAQLPLHRCDIYGKACAECCLARDPYCAWDGSACSRYFPTAKRRTRRQDIRNGDPLTHCSDLHHDNHHGHSPEERIIYGVENSSTFLECSPKSQRALVYWQFQRRNEERKEEIRVDDHIIRTDQGLLLRSLQQKDSGNYLCHAVEHGFIQTLLKVTLEVIDTEHLEELLHKDDDGDGSKTKEMSNSMTPSQKVWYRDFMQLINHPNLNTMDEFCEQVWKRDRKQRRQRPGHTPGNSNKWKHLQENKKGRNRRTHEFERAPRSV
